# Results from PubChem BioAssay AID1671190 (National Center for Advancing Translational Sciences (NCATS), 2021).
# By UniProt entry, the sequences of proteins in these tests, tags left out. Where a name states a change or a piece, a line headed by the entry shows the natural chain unless it says otherwise.
# UniProt P18054: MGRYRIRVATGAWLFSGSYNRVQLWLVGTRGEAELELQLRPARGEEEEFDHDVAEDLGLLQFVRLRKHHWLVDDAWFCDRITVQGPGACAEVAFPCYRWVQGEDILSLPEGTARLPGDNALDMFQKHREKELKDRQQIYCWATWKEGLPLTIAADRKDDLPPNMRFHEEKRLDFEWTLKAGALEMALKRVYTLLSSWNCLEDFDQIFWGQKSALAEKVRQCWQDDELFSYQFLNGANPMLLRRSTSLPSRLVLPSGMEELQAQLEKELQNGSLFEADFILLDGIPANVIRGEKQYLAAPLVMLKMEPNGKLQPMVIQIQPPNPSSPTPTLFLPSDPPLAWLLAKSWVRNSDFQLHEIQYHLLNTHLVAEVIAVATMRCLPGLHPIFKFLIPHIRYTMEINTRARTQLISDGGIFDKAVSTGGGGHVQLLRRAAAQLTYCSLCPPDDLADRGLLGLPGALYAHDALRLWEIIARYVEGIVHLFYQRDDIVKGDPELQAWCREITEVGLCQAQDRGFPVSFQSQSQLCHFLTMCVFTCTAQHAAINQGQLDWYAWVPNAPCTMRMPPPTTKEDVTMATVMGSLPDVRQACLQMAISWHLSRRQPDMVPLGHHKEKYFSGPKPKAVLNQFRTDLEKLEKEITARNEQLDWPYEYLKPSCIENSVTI
# Hit rate of the full screen: of about 580,000 compounds, about 6,100 (1.1%) were called active. The shares of active, inactive and inconclusive entries below differ from those in the screen. Calls follow the shape of the dose curve; as a rule, active = well fitted inhibition curve with a large enough effect; inconclusive = small, poorly fitted or top-dose-only effect, or another doubt; inactive = no such curve, though single readings can be large or run the other way. Potencies of inconclusive entries are doubtful fits and often do not repeat.
# Target: Polyunsaturated fatty acid lipoxygenase ALOX12 (Homo sapiens) (UniProt P18054)
# Assay: Primary qHTS assay for inhibitors of human arachidonate 12S-lipoxygenase (ALOX12): Round 2
# Conditions: purified 12hLO, xylenol orange hydroperoxide absorbance; activity change, negative = inhibition: at 108 µM (top of the series) unless noted
# Method in brief: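 Hydroperoxide product was detected by ferrous iron/xylenol orange as the 573 to 405 nm absorbance ratio. Arachidonic acid at 40 uM (final) was turned over for 30 min at room temperature by 150 nM human 12hLO, pH 7.0 Hepes buffer, after 15 min compound preincubation.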
# % is scaled to controls: 0 for no effect and ±100 for the full control effect; potency is read from the fitted curve at half-maximal effect.
Compound,Potency,"activity change, negative = inhibition"
Cc1sc(NC(=S)NC(=O)C2CCCCC2)c(C(N)=O)c1C,"inconclusive: 3.55 µM [inhibitor, full curve, poor fit]",–
COc1ccccc1NC(=O)C(C)OC(=O)c1cccc(-n2cnnn2)c1 (centres undefined),"inconclusive: 50.1 µM [inhibitor, partial curve, poor fit]",–
O=C(/C=C\c1ccco1)NC(=S)Nc1ccccc1O,"inconclusive: 44.7 µM [inhibitor, partial curve, poor fit]",–
CCc1nc2ccc(C(=O)N3CCCC(C(N)=O)C3)cn2c1N(C)Cc1ccc(OC)cc1 (centres undefined),"inconclusive: 50.1 µM [inhibitor, partial curve, poor fit]",–
COc1ccc(-c2ccc3c(c2)C(=O)N2CC[C@H](NC(=O)c4cccc(F)c4)[C@H]2C(=O)N3)cc1,"inconclusive: 17.8 µM [inhibitor, full curve, poor fit]",–
CC(=O)N1c2ccccc2C(=O)C1N1CCN(c2ccc(Cl)cc2)CC1 (centres undefined),"inconclusive: 126 µM [inhibitor, partial curve, poor fit]",–
Cc1ccc(CNCc2ccc(C(=O)O)cc2)s1,"inconclusive: 28.2 µM [inhibitor, partial curve]",–
CC(C)(C)N=C1NN=C(c2cc3ccccc3o2)CS1,inactive,–
CC(=O)c1ccccc1OCc1ccc(S(=O)(=O)Cc2ccccc2)cc1,inactive,–
CC(C)c1nc(OCC(=O)NCc2ccccc2)c(C#N)c2c1CCCC2,inactive,–
CCOC1=C2[C@H](c3cccc(Cl)c3)N(S(=O)(=O)c3ccc(C)cc3)C[C@H]2n2c(=O)n(-c3ccccc3)c(=O)n2C1,"inconclusive: 11.2 µM [inhibitor, full curve, poor fit]",–
CCOC(=O)c1cc(OC(=O)c2ccccc2F)n(-c2ccccc2)n1,"inconclusive: 6.31 µM [inhibitor, partial curve, poor fit]",–
Cc1ccc(NC(=O)COC(=O)C2CC2)cc1S(=O)(=O)N1CCOCC1,"inconclusive: 70.8 µM [inhibitor, partial curve, poor fit]",–
C=CCN(c1ccc(F)cc1)S(=O)(=O)c1cc(C(=O)NC2CCC(O)CC2)ccc1Cl (centres undefined),"inconclusive: 126 µM [inhibitor, single point]",–
CC(C)C[C@H](N)c1nnc(SCc2ccc(Cl)cc2Cl)o1,"inconclusive: 14.1 µM [inhibitor, full curve, poor fit]",–
Cc1ccc(-c2nc(S(=O)(=O)c3ccc(F)cc3)c(N3CCN(c4ccccc4)CC3)o2)cc1,inactive,–
CCc1nc(CN2CCCC(C(=O)Nc3ccc(-c4cccc(OC)c4)cc3)C2)c(C)[nH]1 (centres undefined),inactive,–
O=C(CSc1nc(=O)n2cc(Cl)ccc2n1)Nc1ccc2c(c1)OCCO2,"inconclusive: 70.8 µM [inhibitor, single point]",–
O=C(c1ccc(Cl)cc1Cl)N(CCS(=O)(=O)N1CCOCC1)Cc1cccnc1,"inconclusive: 0.708 µM [inhibitor, full curve, poor fit]",–
Cc1ncsc1C(=O)NCc1cccnc1,"inconclusive: 8.91 µM [inhibitor, full curve, poor fit]",–
CCN(CC)CCCNCC(=O)Nc1ccc2c(c1)CCC2,"inconclusive: 1 µM [inhibitor, full curve, poor fit]",–
Cc1ccccc1Nc1nn2c(=O)c3ccc(C(=O)NCC(C)c4ccccc4)cc3nc2s1 (centres undefined),inactive,–

Compound,Potency,"activity change, negative = inhibition"
c1cc(-c2ccnc3nc(CCC4CCCC4)nn23)ccn1,inactive,–
Nc1[nH]c(=O)[nH]c(=O)c1N=Nc1ccc(C(=O)O)cc1,"inconclusive: 44.7 µM [inhibitor, partial curve, poor fit]",–
CN(C)CCNC(=O)c1nc2nc(-c3ccccc3)c(-c3ccccc3O)cc2n1C,"inconclusive: 44.7 µM [inhibitor, full curve]",–
CC1=C(c2ccc(C(C)C)cc2)S(=O)(=O)N=C1N1CCN(c2ccccc2F)CC1,"inconclusive: 12.6 µM [inhibitor, full curve, poor fit]",–
Cc1ccc(C)n1C1C(=O)N(Cc2ccc(C(F)(F)F)cc2)c2c(F)cccc21 (centres undefined),"inconclusive: 39.8 µM [inhibitor, partial curve]",–
O=S(=O)(c1ccccc1)N1CCN(Cc2cccc(Br)c2)CC1,"inconclusive: 2.82 µM [inhibitor, full curve, poor fit]",–
COc1ccc(OC(C)C(=O)NC(C)c2ccccc2)cc1 (centres undefined),"inconclusive: 44.7 µM [inhibitor, single point]",–
CC1(c2ccccc2)N(Cc2ccccc2F)C(=O)OC12CCN(c1cccnc1)CC2 (centres undefined),"inconclusive: 79.4 µM [inhibitor, partial curve]",–
Cc1cccc(C)c1NC(=S)NC(=O)c1ccc(Br)o1,active: 44.7 µM,–
O=S(=O)(NC1CCCC1)c1ccc(F)cc1F,–,inconclusive: -32.4% [inhibitor]
O=[N+]([O-])c1ccc(-c2ccn[nH]2)o1,"inconclusive: 50.1 µM [inhibitor, partial curve, poor fit]",–
C=CCn1cc(/C=C2/NC(=O)NC2=O)c2ccccc21,"inconclusive: 100 µM [inhibitor, partial curve, poor fit]",–
COc1cc(C=C(C#N)c2ccc([N+](=O)[O-])cc2)ccc1O,"inconclusive: 44.7 µM [inhibitor, partial curve, poor fit]",–
C=C(C)Cn1c(-c2cccc([N+](=O)[O-])c2)n[nH]c1=S,"inconclusive: 100 µM [inhibitor, partial curve, poor fit]",–
COc1cccc(CNC(=O)Cn2ncc3ccc(OC)c(OC)c3c2=O)c1,inactive,–
CCOC(=O)N1CCN(C(=O)Cn2nc(-c3ccccc3)ccc2=O)CC1,inactive,–
Cc1ccc(-c2nc(CS(=O)CC(=O)NCCN3CCCCCC3)c(C)o2)cc1 (centres undefined),"inconclusive: 112 µM [inhibitor, single point]",–
OC(COCc1ccc2c(c1)OCO2)CN1CCC(Cc2ccccc2)CC1 (centres undefined),inactive,–
O=C(OC1CCOC1=O)c1ccccc1Sc1ccc(C(F)(F)F)cc1[N+](=O)[O-] (centres undefined),"inconclusive: 79.4 µM [inhibitor, single point]",–
O=C(Nc1ccccn1)c1ccc2c(=O)n3c(nc2c1)CCCCC3,"inconclusive: 44.7 µM [inhibitor, partial curve, poor fit]",–
COc1ccc(S(=O)(=O)N(CC(=O)NCCSc2ccc(C)cc2)c2ccc(C)cc2)cc1,"inconclusive: 112 µM [inhibitor, single point]",–
O=C(Cn1cc(COc2ccc3ccc(=O)oc3c2)nn1)c1ccc(O)cc1,"inconclusive: 39.8 µM [inhibitor, partial curve, poor fit]",–

# A few values from the entries so far:
# Entry for `CCOC(=O)N1CCN(C(=O)Cn2nc(-c3ccccc3)ccc2=O)CC1` under Potency: inactive
# Entry for `O=C(CSc1nc(=O)n2cc(Cl)ccc2n1)Nc1ccc2c(c1)OCCO2` under Potency: inconclusive: 70.8 µM [inhibitor, single point]

# (cont.)

Compound,Potency,"activity change, negative = inhibition"
Cc1cc(C)c2ccc3c(C)c(C)nc3c2[nH]1,inactive,–
CN1CCN(C(=O)CN(C)S(=O)(=O)c2cc(Cl)ccc2Cl)CC1,"inconclusive: 126 µM [inhibitor, single point]",–
Cc1cccc(N2CC(C(=O)Nc3nnc(SCCC4OCCO4)s3)CC2=O)c1 (centres undefined),active: 8.91 µM,–
CCCCCCN1C=CC=C/C1=C/C=C(C#N)C#N,inactive,–
O=C(OCc1nnc(-c2ccc([N+](=O)[O-])cc2)o1)C1(c2ccc(Cl)cc2)CCC1,"inconclusive: 3.16 µM [inhibitor, full curve]",–
Cc1c(NC(=O)COc2ccc3ccc(=O)oc3c2)c(=O)n(-c2ccccc2)n1C,–,inconclusive: -31.2% [inhibitor]
CCN1CCN(c2ccc(S(=O)(=O)N3CCCCC3)cc2NC(=O)COc2ccc(Cl)cc2)CC1,"inconclusive: 100 µM [inhibitor, single point]",–
Nc1c(N(CCC2=CCCCC2)C(=O)c2ccc([N+](=O)[O-])o2)c(=O)[nH]c(=O)n1Cc1ccccc1,"inconclusive: 89.1 µM [inhibitor, partial curve, poor fit]",–
CCCOc1ccc(C(N)C(=O)OCC)cc1 (centres undefined),"inconclusive: 35.5 µM [inhibitor, partial curve, poor fit]",–
O=C(/C=C/c1ccc([N+](=O)[O-])cc1)c1ccccc(=O)c1O,"inconclusive: 17.8 µM [inhibitor, partial curve, poor fit]",–
C/C(=N\NC(=S)NCc1ccccc1)c1ccc2ccccc2c1,active: 44.7 µM,–
C[C@@H]1NS(=O)(=O)c2cc(Cl)ccc2O[C@@H]1c1ccccc1,"inconclusive: 50.1 µM [inhibitor, partial curve, poor fit]",–
COc1ccc(CC(=O)NCC2CCCN(Cc3cccc(SC)c3)C2)cc1 (centres undefined),"inconclusive: 112 µM [inhibitor, single point]",–
CCc1ccc(/C=C2\Oc3c(ccc(O)c3CN3CCN(C)CC3)C2=O)cc1,"inconclusive: 89.1 µM [inhibitor, partial curve, poor fit]",–
CCOC(=O)c1[nH]cnc1C(=O)Nc1ccc(Cl)cc1,inactive,–
CN(C(=O)COc1cccc(Br)c1)C1CCS(=O)(=O)C1 (centres undefined),inactive,–
CCOc1ccccc1N1CCN(C(=O)Nc2ccc(F)c(Cl)c2)CC1,inactive,–
CO[C@H]1C(=O)N(C2CCN(Cc3scnc3C)CC2)[C@H]1c1ccncc1,"inconclusive: 7.08 µM [inhibitor, full curve, poor fit]",–
C=CCNc1nc(NCCO)nc(N2CCCC2)n1,"inconclusive: 5.01 µM [inhibitor, full curve, poor fit]",–
C[C@@H]1CN([C@H](C)CO)C(=O)c2cc(NS(=O)(=O)c3ccccc3)ccc2O[C@@H](C)CCCCO[C@@H]1CN(C)Cc1ccccc1,"inconclusive: 44.7 µM [inhibitor, partial curve, poor fit]",–
